PubChem BioAssay AID1259283 – Sanger Institute, 2017
Shown is one part, drawn at random, of 794 reagents. 14 of them (1.8%) were called active. 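Calls reflect only viability loss without drug; drug synergy does not enter the call.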 No viability above 1 is reported: the scale is capped. Not all columns of the deposit are shown. The record does not give: the amount of reagent, the time to read-out.

- Purpose: 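Kinases whose silencing adds to targeted drugs in killing colon cancer cells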 (primary screen)
- System: HT115 colorectal cancer cells
- Knock-down reagent: siRNA pool against human genes
- Challenge: anchor drug given one day after siRNA: BYL719 at 1 µM, cetuximab at 5 µg/ml, trametinib at 10 nM, or DMSO vehicle alone
- Detection: 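Per-drug synergy scores plus replicate-mean viability relative to non-targeting pool #2 wells, also expressed as a robust z-score based on control wells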
- Scale: robust z-score, knock-down alone: higher = more viable cells after knock-down; viability, DMSO vs non-targeting control: higher = more viable cells
- Units: viability, DMSO vs non-targeting control in fraction of control
- Call rule: 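a gene counts as essential when its robust z-score with knock-down alone is below -3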
- Calls: active = essential (z below -3, no drug); inactive = no change without drug

NRBP1 (nuclear receptor binding protein 1) | robust z-score, knock-down alone: 0.789; viability, DMSO vs non-targeting control: 1; outcome: inactive
RET (ret proto-oncogene) | robust z-score, knock-down alone: 0.789; viability, DMSO vs non-targeting control: 1; outcome: inactive
MAPK7 (mitogen-activated protein kinase 7) | robust z-score, knock-down alone: 0.789; viability, DMSO vs non-targeting control: 1; outcome: inactive
ALPK1 (alpha kinase 1) | robust z-score, knock-down alone: -3.07; viability, DMSO vs non-targeting control: 0.643; outcome: active
MAPK11 (mitogen-activated protein kinase 11) | robust z-score, knock-down alone: -0.273; viability, DMSO vs non-targeting control: 0.902; outcome: inactive
GRK1 (G protein-coupled receptor kinase 1) | robust z-score, knock-down alone: -0.566; viability, DMSO vs non-targeting control: 0.875; outcome: inactive
IKBKB (inhibitor of nuclear factor kappa B kinase subunit beta) | robust z-score, knock-down alone: -0.224; viability, DMSO vs non-targeting control: 0.906; outcome: inactive
MYO3B (myosin IIIB) | robust z-score, knock-down alone: -0.26; viability, DMSO vs non-targeting control: 0.903; outcome: inactive
NTN4 (netrin 4) | robust z-score, knock-down alone: -1.79; viability, DMSO vs non-targeting control: 0.762; outcome: inactive
RPS6KA2 (ribosomal protein S6 kinase A2) | robust z-score, knock-down alone: -0.759; viability, DMSO vs non-targeting control: 0.857; outcome: inactive
WT1 (WT1 transcription factor) | robust z-score, knock-down alone: -0.134; viability, DMSO vs non-targeting control: 0.915; outcome: inactive
CSNK1A1 (casein kinase 1 alpha 1) | robust z-score, knock-down alone: 0.599; viability, DMSO vs non-targeting control: 0.982; outcome: inactive
PLK3 (polo like kinase 3) | robust z-score, knock-down alone: 0.493; viability, DMSO vs non-targeting control: 0.973; outcome: inactive
CDKN2B (cyclin dependent kinase inhibitor 2B) | robust z-score, knock-down alone: -0.0624; viability, DMSO vs non-targeting control: 0.921; outcome: inactive
STK26 (serine/threonine kinase 26) | robust z-score, knock-down alone: 0.789; viability, DMSO vs non-targeting control: 1; outcome: inactive
STRADA (STE20 related adaptor alpha) | robust z-score, knock-down alone: -0.905; viability, DMSO vs non-targeting control: 0.843; outcome: inactive
NUP107 (nucleoporin 107) | robust z-score, knock-down alone: -1.96; viability, DMSO vs non-targeting control: 0.746; outcome: inactive

Continued, starting with the last 2 of the part before.
STRADA (STE20 related adaptor alpha) | robust z-score, knock-down alone: -0.905; viability, DMSO vs non-targeting control: 0.843; outcome: inactive
NUP107 (nucleoporin 107) | robust z-score, knock-down alone: -1.96; viability, DMSO vs non-targeting control: 0.746; outcome: inactive
STRADB (STE20 related adaptor beta) | robust z-score, knock-down alone: -1.81; viability, DMSO vs non-targeting control: 0.76; outcome: inactive
PHKA2 (phosphorylase kinase regulatory subunit alpha 2) | robust z-score, knock-down alone: -0.0264; viability, DMSO vs non-targeting control: 0.925; outcome: inactive
TP53RK (TP53 regulating kinase) | robust z-score, knock-down alone: 0.717; viability, DMSO vs non-targeting control: 0.993; outcome: inactive
SRPK2 (SRSF protein kinase 2) | robust z-score, knock-down alone: 0.305; viability, DMSO vs non-targeting control: 0.955; outcome: inactive
STK17A (serine/threonine kinase 17a) | robust z-score, knock-down alone: -1.04; viability, DMSO vs non-targeting control: 0.831; outcome: inactive
DCLK2 (doublecortin like kinase 2) | robust z-score, knock-down alone: 0.789; viability, DMSO vs non-targeting control: 1; outcome: inactive
DGKD (diacylglycerol kinase delta) | robust z-score, knock-down alone: -0.672; viability, DMSO vs non-targeting control: 0.865; outcome: inactive
IRAK3 (interleukin 1 receptor associated kinase 3) | robust z-score, knock-down alone: -1.95; viability, DMSO vs non-targeting control: 0.747; outcome: inactive
RIPK2 (receptor interacting serine/threonine kinase 2) | robust z-score, knock-down alone: 0.728; viability, DMSO vs non-targeting control: 0.994; outcome: inactive
RNASEL (ribonuclease L) | robust z-score, knock-down alone: 0.789; viability, DMSO vs non-targeting control: 1; outcome: inactive
STK38 (serine/threonine kinase 38) | robust z-score, knock-down alone: -1.17; viability, DMSO vs non-targeting control: 0.819; outcome: inactive
